Publication PMC7033728
No constants are given. Whether binding was seen depends on the method and setting. In cells and extracts the contact can be indirect. Some results given as binding are weak or reduced against the parent protein; the word gives no strength.

Amino acid sequences for entries named in this document (tags omitted). A change or cut given only in a name is not applied to a line headed by its entry.
UniProt Q08211: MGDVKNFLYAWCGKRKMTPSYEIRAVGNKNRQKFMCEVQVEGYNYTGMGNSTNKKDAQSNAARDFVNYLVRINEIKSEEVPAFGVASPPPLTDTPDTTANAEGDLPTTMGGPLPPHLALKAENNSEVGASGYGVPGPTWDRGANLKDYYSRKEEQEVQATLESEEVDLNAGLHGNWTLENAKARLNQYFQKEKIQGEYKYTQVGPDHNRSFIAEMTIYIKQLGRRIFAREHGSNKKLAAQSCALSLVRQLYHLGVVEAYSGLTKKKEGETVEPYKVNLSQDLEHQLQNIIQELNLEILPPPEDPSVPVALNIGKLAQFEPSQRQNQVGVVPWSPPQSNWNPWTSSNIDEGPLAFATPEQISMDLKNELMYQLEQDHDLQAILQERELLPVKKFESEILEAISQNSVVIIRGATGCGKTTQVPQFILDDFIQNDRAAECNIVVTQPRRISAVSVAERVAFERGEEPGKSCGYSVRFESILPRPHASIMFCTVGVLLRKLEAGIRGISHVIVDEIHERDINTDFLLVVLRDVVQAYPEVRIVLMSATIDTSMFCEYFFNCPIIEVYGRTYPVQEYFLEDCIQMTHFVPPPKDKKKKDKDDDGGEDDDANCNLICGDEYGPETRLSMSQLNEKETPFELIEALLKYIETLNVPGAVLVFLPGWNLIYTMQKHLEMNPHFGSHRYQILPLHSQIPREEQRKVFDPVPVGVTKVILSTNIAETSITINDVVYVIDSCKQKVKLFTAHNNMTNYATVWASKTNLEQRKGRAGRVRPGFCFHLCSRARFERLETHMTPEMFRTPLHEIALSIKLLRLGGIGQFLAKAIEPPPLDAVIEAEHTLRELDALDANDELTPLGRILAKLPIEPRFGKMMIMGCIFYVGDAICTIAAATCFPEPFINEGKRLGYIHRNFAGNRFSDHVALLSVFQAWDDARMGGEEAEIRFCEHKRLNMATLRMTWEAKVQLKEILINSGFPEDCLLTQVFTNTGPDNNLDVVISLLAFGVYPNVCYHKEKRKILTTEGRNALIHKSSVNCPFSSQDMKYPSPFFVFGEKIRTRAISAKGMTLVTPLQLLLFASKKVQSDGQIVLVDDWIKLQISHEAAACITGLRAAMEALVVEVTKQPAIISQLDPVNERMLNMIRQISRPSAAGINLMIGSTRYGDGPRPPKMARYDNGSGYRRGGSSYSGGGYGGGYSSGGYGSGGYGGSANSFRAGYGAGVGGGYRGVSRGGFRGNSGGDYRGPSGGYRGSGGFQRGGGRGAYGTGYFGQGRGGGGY
UniProt Q9UH17: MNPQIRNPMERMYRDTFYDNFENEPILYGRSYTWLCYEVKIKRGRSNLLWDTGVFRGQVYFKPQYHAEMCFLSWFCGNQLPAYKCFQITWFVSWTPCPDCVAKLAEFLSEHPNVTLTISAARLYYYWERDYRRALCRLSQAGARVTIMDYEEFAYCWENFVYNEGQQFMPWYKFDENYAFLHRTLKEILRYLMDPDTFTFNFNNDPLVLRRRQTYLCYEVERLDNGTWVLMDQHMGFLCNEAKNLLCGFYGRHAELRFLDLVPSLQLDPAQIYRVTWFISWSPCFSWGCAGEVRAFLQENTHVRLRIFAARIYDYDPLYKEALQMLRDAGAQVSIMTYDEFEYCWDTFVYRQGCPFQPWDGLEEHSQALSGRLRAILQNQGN

How the values were obtained:
[1] = biological target: Flag-tagged DExD/H-box helicase 9 (DHX9), wild type (human) (UniProt Q08211); assay: co-IP; reverse co-IP, HEK293T cotransfected with HA-A3B and Flag-DHX9; RIPA lysate; IP with anti-Flag antibody
[2] = biological target: Flag-tagged DExD/H-box helicase 9 (DHX9), wild type (human) (UniProt Q08211); assay: co-IP; Huh7 cotransfected with HA-A3B and Flag-DHX9 in the absence or presence of the HBV replication plasmid (gtD); co-IP as Figure 2(B) (anti-Flag antibody)
[3] = biological target: Flag-tagged DExD/H-box helicase 9 (DHX9), wild type (human) (UniProt Q08211); assay: co-IP; HEK293T cotransfected with HA-A3B and Flag-DHX9 WT or truncation mutants; lysates used for co-IP; A3B pulled down by the DHX9 proteins; IP antibody not named

binding [1]: binds
binding [2]: binds
binding [3]: binds
Substance: HA-tagged APOBEC3B (A3B) (from UniProt Q9UH17 1-382)
